# In the supplement of paper PMC10849652:
# Sequences of proteins named here, by UniProt entry; tags and fusion partners are left off. A change or cut given only in a name is not applied to a line headed by its entry.
# UniProt Q13573: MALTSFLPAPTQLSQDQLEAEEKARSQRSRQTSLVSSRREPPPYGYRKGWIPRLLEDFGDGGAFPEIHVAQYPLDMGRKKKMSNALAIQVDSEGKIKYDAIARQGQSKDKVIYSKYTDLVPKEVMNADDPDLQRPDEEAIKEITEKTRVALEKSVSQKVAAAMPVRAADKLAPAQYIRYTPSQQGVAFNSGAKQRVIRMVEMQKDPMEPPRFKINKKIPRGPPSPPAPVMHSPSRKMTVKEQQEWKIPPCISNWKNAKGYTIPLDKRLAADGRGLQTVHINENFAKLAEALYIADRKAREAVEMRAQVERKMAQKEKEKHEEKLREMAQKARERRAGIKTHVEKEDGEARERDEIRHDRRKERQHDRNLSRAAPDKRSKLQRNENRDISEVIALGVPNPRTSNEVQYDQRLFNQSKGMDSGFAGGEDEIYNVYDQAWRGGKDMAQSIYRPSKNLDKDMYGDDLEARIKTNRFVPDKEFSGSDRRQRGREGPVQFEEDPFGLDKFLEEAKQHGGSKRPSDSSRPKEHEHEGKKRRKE
# UniProt P35610: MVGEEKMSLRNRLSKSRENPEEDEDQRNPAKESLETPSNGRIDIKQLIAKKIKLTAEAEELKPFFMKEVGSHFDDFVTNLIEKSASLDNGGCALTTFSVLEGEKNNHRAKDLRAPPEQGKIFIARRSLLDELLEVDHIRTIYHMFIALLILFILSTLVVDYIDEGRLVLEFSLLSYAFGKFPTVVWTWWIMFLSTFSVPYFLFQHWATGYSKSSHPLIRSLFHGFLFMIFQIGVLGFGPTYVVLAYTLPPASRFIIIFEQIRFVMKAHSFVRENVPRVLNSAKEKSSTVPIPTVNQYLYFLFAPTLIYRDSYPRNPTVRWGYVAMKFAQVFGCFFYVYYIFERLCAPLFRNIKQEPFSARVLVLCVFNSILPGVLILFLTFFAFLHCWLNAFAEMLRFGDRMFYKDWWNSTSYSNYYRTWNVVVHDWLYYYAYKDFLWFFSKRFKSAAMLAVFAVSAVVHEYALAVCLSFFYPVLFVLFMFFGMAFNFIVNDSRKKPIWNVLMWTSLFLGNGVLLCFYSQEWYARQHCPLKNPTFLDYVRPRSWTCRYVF
# UniProt O95347, whole entry, looked up: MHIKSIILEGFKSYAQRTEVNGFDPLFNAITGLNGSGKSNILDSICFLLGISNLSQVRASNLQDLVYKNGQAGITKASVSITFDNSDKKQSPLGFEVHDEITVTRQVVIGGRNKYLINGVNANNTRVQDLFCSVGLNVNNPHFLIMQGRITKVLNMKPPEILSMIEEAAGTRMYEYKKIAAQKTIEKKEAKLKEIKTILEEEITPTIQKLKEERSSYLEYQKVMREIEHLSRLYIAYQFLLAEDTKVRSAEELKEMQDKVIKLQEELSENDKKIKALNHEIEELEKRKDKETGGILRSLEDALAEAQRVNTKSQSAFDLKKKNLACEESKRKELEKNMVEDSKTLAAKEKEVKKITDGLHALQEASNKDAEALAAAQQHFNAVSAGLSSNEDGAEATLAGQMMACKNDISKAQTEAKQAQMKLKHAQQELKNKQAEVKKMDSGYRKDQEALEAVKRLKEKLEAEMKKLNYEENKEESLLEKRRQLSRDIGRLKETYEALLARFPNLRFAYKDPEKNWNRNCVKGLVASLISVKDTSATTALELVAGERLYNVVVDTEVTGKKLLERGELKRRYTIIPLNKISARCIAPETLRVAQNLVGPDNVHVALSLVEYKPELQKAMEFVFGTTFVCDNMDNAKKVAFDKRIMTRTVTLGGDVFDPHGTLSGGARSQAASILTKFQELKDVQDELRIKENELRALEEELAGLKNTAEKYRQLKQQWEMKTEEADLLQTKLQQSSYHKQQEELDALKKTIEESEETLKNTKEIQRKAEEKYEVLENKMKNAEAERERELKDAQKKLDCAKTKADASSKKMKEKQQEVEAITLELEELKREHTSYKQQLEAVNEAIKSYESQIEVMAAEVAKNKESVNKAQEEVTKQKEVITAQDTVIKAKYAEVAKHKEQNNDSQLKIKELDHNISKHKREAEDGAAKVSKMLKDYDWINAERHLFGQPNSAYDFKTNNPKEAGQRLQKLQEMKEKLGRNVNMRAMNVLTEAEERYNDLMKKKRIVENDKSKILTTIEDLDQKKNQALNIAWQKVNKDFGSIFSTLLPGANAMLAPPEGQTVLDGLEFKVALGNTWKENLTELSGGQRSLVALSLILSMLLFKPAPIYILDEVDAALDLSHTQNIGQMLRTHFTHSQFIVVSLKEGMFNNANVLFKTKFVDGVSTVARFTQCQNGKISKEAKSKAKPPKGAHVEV
# UniProt O75940: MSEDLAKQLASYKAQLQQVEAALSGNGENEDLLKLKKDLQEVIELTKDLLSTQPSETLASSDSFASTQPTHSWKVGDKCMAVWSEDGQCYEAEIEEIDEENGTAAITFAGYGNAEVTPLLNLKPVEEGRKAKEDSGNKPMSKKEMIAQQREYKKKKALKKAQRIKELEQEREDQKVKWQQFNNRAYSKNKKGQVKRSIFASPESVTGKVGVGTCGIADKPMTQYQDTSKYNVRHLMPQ
# UniProt P18583: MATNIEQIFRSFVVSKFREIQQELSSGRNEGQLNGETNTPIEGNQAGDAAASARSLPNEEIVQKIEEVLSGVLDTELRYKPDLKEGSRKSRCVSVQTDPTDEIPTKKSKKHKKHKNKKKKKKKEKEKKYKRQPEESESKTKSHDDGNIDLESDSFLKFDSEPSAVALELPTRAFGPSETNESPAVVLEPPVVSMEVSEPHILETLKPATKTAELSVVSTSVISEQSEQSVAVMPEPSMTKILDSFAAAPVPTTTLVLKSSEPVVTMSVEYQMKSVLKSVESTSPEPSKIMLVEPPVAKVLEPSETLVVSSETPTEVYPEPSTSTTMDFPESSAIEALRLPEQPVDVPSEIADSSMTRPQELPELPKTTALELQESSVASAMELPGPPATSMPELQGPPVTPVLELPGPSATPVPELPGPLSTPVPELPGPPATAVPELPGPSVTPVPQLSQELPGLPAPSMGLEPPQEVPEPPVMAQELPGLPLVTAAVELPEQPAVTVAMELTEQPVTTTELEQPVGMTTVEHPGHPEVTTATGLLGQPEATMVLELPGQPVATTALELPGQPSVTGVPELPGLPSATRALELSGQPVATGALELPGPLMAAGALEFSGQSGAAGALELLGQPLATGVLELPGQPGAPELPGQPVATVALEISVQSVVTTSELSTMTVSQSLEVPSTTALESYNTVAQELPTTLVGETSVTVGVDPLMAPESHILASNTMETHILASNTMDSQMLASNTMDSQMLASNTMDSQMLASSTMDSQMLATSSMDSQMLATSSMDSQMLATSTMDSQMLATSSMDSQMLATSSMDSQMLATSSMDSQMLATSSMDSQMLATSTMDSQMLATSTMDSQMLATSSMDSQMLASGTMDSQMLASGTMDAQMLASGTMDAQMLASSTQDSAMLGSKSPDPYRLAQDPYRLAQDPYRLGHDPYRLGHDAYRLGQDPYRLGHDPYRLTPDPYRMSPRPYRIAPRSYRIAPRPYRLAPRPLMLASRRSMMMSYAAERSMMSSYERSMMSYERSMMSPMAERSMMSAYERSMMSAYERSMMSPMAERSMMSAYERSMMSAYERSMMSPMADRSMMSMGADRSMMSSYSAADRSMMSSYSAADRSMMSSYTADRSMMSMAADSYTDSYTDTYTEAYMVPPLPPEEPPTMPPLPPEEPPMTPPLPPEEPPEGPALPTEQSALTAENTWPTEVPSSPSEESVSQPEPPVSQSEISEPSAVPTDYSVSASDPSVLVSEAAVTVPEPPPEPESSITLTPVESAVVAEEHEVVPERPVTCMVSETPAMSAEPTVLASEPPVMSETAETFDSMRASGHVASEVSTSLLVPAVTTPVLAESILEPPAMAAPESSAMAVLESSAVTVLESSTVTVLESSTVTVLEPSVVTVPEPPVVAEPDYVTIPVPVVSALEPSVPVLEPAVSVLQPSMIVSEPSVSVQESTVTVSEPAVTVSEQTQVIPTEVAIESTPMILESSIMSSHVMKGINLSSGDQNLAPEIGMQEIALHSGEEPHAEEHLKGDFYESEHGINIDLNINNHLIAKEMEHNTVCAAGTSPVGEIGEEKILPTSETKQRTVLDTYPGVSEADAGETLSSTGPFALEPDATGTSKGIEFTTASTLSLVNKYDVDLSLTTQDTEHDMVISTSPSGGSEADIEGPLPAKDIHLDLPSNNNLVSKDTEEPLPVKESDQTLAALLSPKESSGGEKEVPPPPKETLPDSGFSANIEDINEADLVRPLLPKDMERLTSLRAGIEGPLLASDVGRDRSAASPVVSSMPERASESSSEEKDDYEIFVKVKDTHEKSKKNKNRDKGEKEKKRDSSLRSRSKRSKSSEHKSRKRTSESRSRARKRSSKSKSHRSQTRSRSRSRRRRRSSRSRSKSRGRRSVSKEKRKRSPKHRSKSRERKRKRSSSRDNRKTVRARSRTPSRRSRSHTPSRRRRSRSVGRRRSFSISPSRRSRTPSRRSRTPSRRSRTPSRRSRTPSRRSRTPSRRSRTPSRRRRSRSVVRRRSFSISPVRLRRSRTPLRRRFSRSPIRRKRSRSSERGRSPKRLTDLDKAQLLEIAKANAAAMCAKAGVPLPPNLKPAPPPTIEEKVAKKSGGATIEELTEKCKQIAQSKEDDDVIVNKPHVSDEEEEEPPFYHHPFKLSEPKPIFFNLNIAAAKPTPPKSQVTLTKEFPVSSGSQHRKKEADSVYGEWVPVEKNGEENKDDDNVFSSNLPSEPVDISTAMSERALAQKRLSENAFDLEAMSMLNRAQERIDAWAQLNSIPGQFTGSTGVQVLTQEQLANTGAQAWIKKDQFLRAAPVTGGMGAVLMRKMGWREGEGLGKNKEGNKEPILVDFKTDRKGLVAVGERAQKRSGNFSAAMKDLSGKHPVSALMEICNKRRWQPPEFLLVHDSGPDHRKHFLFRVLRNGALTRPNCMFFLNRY
# UniProt P08621, whole entry, looked up: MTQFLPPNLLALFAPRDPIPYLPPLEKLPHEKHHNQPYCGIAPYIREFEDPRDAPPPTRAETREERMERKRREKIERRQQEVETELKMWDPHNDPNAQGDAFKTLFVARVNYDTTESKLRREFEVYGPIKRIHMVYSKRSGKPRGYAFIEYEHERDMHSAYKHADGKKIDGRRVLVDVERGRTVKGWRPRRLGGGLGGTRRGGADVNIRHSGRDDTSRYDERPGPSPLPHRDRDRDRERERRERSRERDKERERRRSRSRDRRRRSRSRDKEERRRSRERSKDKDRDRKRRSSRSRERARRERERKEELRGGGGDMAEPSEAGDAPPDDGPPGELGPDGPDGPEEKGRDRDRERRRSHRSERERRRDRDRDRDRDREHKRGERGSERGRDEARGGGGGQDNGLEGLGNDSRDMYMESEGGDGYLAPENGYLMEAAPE
# UniProt O15198: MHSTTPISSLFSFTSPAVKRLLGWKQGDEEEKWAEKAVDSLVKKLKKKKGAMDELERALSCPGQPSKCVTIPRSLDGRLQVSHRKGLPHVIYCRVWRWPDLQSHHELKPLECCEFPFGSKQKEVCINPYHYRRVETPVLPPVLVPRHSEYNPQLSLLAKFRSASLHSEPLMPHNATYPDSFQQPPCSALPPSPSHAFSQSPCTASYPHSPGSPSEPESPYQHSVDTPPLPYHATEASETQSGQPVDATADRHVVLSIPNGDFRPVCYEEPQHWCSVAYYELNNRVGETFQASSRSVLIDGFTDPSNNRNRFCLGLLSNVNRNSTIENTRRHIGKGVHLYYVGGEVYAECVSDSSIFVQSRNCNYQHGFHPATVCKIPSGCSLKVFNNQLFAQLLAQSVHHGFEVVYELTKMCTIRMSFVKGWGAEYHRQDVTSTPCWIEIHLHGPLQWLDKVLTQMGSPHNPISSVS
# UniProt Q96BD0: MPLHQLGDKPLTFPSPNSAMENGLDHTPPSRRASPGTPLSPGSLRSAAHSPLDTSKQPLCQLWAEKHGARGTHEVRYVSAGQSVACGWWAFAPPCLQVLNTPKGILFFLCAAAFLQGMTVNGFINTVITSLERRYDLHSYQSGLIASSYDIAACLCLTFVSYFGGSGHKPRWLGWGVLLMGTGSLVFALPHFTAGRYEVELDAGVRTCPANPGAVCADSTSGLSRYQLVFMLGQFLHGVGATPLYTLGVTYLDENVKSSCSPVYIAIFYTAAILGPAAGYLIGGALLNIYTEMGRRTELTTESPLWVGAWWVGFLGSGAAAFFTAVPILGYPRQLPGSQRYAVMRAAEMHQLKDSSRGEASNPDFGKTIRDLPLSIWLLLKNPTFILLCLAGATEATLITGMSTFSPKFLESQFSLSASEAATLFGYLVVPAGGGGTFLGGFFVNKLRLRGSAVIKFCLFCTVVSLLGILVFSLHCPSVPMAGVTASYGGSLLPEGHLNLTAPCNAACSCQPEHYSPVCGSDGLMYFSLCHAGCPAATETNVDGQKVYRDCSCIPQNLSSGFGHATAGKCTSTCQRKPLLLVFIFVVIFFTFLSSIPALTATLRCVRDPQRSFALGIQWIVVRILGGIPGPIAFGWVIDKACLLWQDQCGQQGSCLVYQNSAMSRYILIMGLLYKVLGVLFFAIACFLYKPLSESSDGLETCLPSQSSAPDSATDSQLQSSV
# This is one part of the list.
# Key:
# Assay in all cases: log2 fold change, soluble protein after heating vs DMSO (PISA); higher = thermal stabilisation; K562 cells, 10 uM, 30 min; active = over 0.2 and 3.5 SD of the protein, either way, in both replicates (recomputed)
# erlotinib = compound: C#Cc1cccc(Nc2ncnc3cc(OCCOC)c(OCCOC)cc23)c1 [erlotinib]
# Procedure, shortened: (§1)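 K562 cells at 2×10^6 cells/mL were treated for 30 min with 10 μM compound, and aliquots were heated for 3 min over 48°C-58°C before pooling. Extraction used PBS with 0.5% NP-40 at 4°C, and soluble protein was the supernatant after 21,000xg for 90 min, measured by TMTpro 16plex LC-MS/MS with channel sums equalised. Thermal stability values, relative to control samples and from duplicates, are log2 fold changes.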
# [1] = compound: C/C(=N\NC(=O)C1=CC(=CC=C1)S(=O)(=O)N2CCOCC2)/C3=C(C=CC(=C3)Cl)O
# Procedure, shortened: as §1
# [2] = compound: C1=CC(=C(C=C1Cl)C2=NC3=NC=CN=C3C(=N2)NC4=CC=NC=C4)F
# Procedure, shortened: as §1
# [3] = compound: C1=CC(=CC=C1C2=NC3=C(N2)C=C(C=C3)C(=O)N)OC4=CC=C(C=C4)Cl
# Procedure, shortened: as §1
# [4] = compound: C1=CC2=C(C=CC(=C2)/C=C\3/C(=O)NC(=NCC4=CC=CS4)S3)N=C1
# Procedure, shortened: as §1
# [5] = compound: C1=CC2=NC=CN=C2C=C1/C=C/3\C(=O)NC(=O)S3
# Procedure, shortened: as §1
# [6] = compound: C1=CC=C(C=C1)C2=NC(=C(N2)C3=CC=NC=C3)C4=CC(=C(C=C4)Cl)O
# Procedure, shortened: as §1
# [7] = compound: C1=CC=C2C(=C1)C3=NNC4=CC=CC(=C43)C2=O
# Procedure, shortened: as §1
# [8] = compound: C1CCN(C1)C(=O)NC2=CC=CC(=C2)NC3=NC=C(C(=N3)NCCC4=CN=CN4)Br
# Procedure, shortened: as §1
# [9] = compound: C1CN(CCC1(CC2=CC=C(C=C2)Cl)N)C3=NC=NC4=C3C=CN4
# Procedure, shortened: as §1
Target,log2 fold change (erlotinib),log2 fold change [1],log2 fold change [2],log2 fold change [3],log2 fold change [4],log2 fold change [5],log2 fold change [6],log2 fold change [7],log2 fold change [8],log2 fold change [9]
SMARCE1 (UniProt Q969G3),inactive: 0.101,inactive: 0.04,inactive: 0.017,inactive: 0,inactive: 0.009,inactive: 0,inactive: 0.001,inactive: -0.057,inactive: 0.075,inactive: -0.127
SMCHD1 (UniProt A6NHR9),inactive: 0.006,inactive: 0.171,inactive: -0.272,inactive: 0.043,inactive: 0.325,inactive: 0.046,inactive: -0.007,inactive: -0.422,inactive: -0.153,active: -0.564
SORT1 (UniProt Q99523),inactive: 0.005,inactive: -0.024,inactive: 0.03,inactive: -0.012,inactive: 0.014,inactive: 0.034,inactive: 0.022,inactive: -0.018,inactive: -0.012,inactive: 0.06
SNW1 (UniProt Q13573),inactive: -0.047,inactive: -0.028,inactive: -0.029,inactive: 0.036,inactive: -0.015,inactive: 0.045,inactive: -0.051,inactive: -0.001,inactive: 0.001,inactive: 0.002
"SMIM26, A0A096LP01",inactive: -0.008,inactive: -0.045,inactive: 0.046,inactive: 0.009,inactive: 0.084,inactive: 0.073,inactive: -0.015,inactive: -0.002,inactive: -0.04,inactive: -0.105
SOAT1 (UniProt P35610),inactive: 0.174,inactive: 0.099,inactive: -0.034,inactive: -0.063,inactive: 0.141,inactive: 0.063,inactive: 0.074,inactive: -0.038,inactive: 0.001,inactive: 0.026
SNX1 (UniProt Q13596),inactive: 0.048,inactive: 0.034,inactive: 0.009,inactive: 0.055,inactive: 0.005,inactive: -0.035,inactive: -0.024,inactive: -0.118,inactive: 0.017,inactive: -0.03
SLC7A6 (UniProt Q92536),inactive: -0.051,inactive: 0.232,inactive: -0.161,inactive: 0.026,inactive: -0.001,inactive: 0.034,inactive: 0.008,inactive: -0.033,inactive: -0.004,inactive: 0.135
SMC1B isoform 3 (UniProt Q8NDV3),inactive: 0.039,inactive: 0.142,inactive: -0.01,inactive: -0.01,inactive: -0.008,inactive: -0.219,inactive: -0.099,inactive: -0.072,inactive: -0.101,inactive: -0.05
SMC2 (UniProt O95347),inactive: 0.018,inactive: 0.05,inactive: 0.007,inactive: -0.024,inactive: -0.002,inactive: 0.022,inactive: 0.019,inactive: 0.033,inactive: 0.002,inactive: -0.066
SOX7 isoform 2 (UniProt Q9BT81),inactive: 0.281,inactive: -0.063,inactive: -0.332,inactive: 0.093,inactive: -0.219,inactive: -0.037,inactive: -0.032,inactive: -0.013,inactive: 0.053,inactive: -0.064
SNX6 (UniProt Q9UNH7),inactive: 0.093,inactive: 0.056,inactive: 0.035,inactive: 0.017,inactive: 0.042,inactive: -0.057,inactive: -0.053,inactive: -0.159,inactive: 0.053,inactive: -0.018
SMNDC1 (UniProt O75940),inactive: -0.025,inactive: -0.052,inactive: -0.006,inactive: -0.028,inactive: -0.016,inactive: 0.039,inactive: 0.021,inactive: 0.018,inactive: 0.017,inactive: -0.008
SON isoform 9 (UniProt P18583),inactive: -0.099,inactive: -0.236,inactive: -0.092,inactive: 0.205,inactive: 0.058,inactive: 0.056,inactive: -0.112,inactive: 0.02,inactive: 0.022,inactive: 0.033
SP1 (UniProt P08047),inactive: -0.055,inactive: -0.03,inactive: -0.046,inactive: 0.043,inactive: 0.006,inactive: 0.01,inactive: 0.001,inactive: -0.031,inactive: 0.047,inactive: -0.019
SNRNP70 (UniProt P08621),inactive: -0.04,inactive: -0.112,inactive: -0.37,inactive: 0.027,inactive: -0.047,inactive: 0.013,inactive: -0.17,inactive: -0.057,inactive: 0.026,inactive: -0.253
SMC1A (UniProt Q14683),inactive: 0,inactive: 0.061,inactive: 0.027,inactive: 0.004,inactive: -0.003,inactive: -0.003,inactive: -0.015,inactive: -0.137,inactive: -0.051,inactive: 0.004
SMU1 (UniProt Q2TAY7),inactive: -0.024,inactive: 0.018,inactive: 0.002,inactive: -0.003,inactive: -0.041,inactive: 0.051,inactive: 0.011,inactive: -0.03,inactive: -0.022,inactive: 0.017
SLC9A3R1 (UniProt O14745),inactive: 0.011,inactive: -0.013,inactive: 0.021,inactive: -0.004,inactive: -0.003,inactive: -0.005,inactive: 0.009,inactive: 0.002,inactive: 0.014,inactive: 0.039
SMARCA4 (UniProt P51532),inactive: 0.02,inactive: 0.073,inactive: 0.032,inactive: 0.102,inactive: 0.035,inactive: -0.001,inactive: -0.096,inactive: -0.124,,
SNX8 (UniProt Q9Y5X2),inactive: 0.026,inactive: 0.039,inactive: 0.023,inactive: -0.005,inactive: -0.06,inactive: 0.006,inactive: -0.01,inactive: -0.011,inactive: 0.028,inactive: 0.031
SLC9A3R2 (UniProt Q15599),inactive: -0.004,inactive: -0.022,inactive: -0.001,inactive: 0.033,inactive: -0.008,inactive: 0.003,inactive: -0.029,inactive: -0.004,inactive: -0.025,inactive: 0.02
SNRNP40 (UniProt Q96DI7),inactive: -0.048,inactive: -0.012,inactive: -0.111,inactive: 0.037,inactive: -0.007,inactive: 0.049,inactive: -0.024,inactive: -0.005,inactive: 0,inactive: 0.008
SNX12 isoform 1 (UniProt Q9UMY4),inactive: 0.002,inactive: 0,inactive: 0.052,inactive: -0.019,inactive: 0.065,inactive: -0.01,inactive: 0.039,inactive: -0.064,inactive: 0.048,inactive: -0.034
SMAD9 (UniProt O15198),inactive: -0.001,inactive: 0.086,inactive: 0.101,inactive: -0.055,inactive: 0,inactive: -0.012,inactive: -0.111,inactive: -0.098,inactive: 0.113,inactive: -0.076
SNAP29 (UniProt O95721),inactive: 0.041,inactive: 0.002,inactive: 0.045,inactive: 0.01,inactive: -0.025,inactive: 0.048,inactive: -0.015,inactive: -0.007,inactive: 0.033,inactive: 0.038
SNCG (UniProt O76070),inactive: 0.031,inactive: -0.026,inactive: 0.066,inactive: 0.001,inactive: -0.015,inactive: 0.056,inactive: -0.035,inactive: -0.014,inactive: 0.068,inactive: 0.04
SLC9A6 isoform 2 (UniProt Q92581),inactive: -0.024,inactive: 0.014,inactive: 0.053,inactive: 0.026,inactive: -0.009,inactive: 0.029,inactive: -0.04,inactive: -0.056,inactive: -0.013,inactive: 0.031
SLCO4A1 (UniProt Q96BD0),inactive: 0.037,inactive: -0.011,inactive: -0.09,inactive: -0.091,inactive: -0.007,inactive: 0.049,inactive: -0.027,inactive: 0.005,inactive: -0.17,inactive: 0.098
SPA17 (UniProt Q15506),inactive: 0.066,inactive: -0.035,inactive: 0.125,inactive: -0.077,inactive: -0.019,inactive: 0.139,inactive: -0.122,inactive: -0.029,inactive: 0.021,inactive: -0.04

# Reprinted at random: two entries already listed.
Target,log2 fold change (erlotinib),log2 fold change [1],log2 fold change [2],log2 fold change [3],log2 fold change [4],log2 fold change [5],log2 fold change [6],log2 fold change [7],log2 fold change [8],log2 fold change [9]
SMC2 (UniProt O95347),inactive: 0.018,inactive: 0.05,inactive: 0.007,inactive: -0.024,inactive: -0.002,inactive: 0.022,inactive: 0.019,inactive: 0.033,inactive: 0.002,inactive: -0.066
SNX6 (UniProt Q9UNH7),inactive: 0.093,inactive: 0.056,inactive: 0.035,inactive: 0.017,inactive: 0.042,inactive: -0.057,inactive: -0.053,inactive: -0.159,inactive: 0.053,inactive: -0.018
